Earlier results in patent US6703045B2, “Composition and method for maintaining blood glucose level” (Council of Scientific & Industrial Research, priority 2001, dated 2004).

Legend:
[1] = patients
[2] = single oral 5 mg dose
[3] = fluconazole 100 mg daily oral for 7 days, normal volunteers

For `Cc1cnc(C(=O)NCCc2ccc(S(=O)(=O)NC(=O)NC3CCCCC3)cc2)cn1` [Glipizide, 1-cyclohexyl-3-[[p-[2-(5-methylpyrazinecarboxamido)ethyl]phenyl]sulfonyl] urea], the “incidence of allergic skin reactions” value [1] is listed as “about one in seventy”, the “plasma concentration after 24 hr” value [2] is listed as 12.0 ng/mL and the “time to peak plasma conc.” value [2] is listed as 1 to 3 h. For the same molecule, the “mean percentage increase in glipizide AUC after fluconazole” value [3] was 56.9%.
